Source: doi:10.1371/journal.pone.0140310, primary screening data, rounded.

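The test systems are human melanoma cell lines, treated with a pair of drugs for 72 h and then stained and imaged. The read-out is the fraction of cleaved-PARP-positive nuclei, in % of that fraction in the DMSO control; 200 means twice the control level of this apoptosis marker. Concentrations were fixed for each drug; these are the higher of two levels. These are primary screening values without error estimates. The marker varies much from line to line, for technical or biological reasons.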
An unselected part of the screen is shown.

All values are for the listed drug together with JZL184 (5 µM): O=C(Oc1ccc([N+](=O)[O-])cc1)N1CCC(C(O)(c2ccc3c(c2)OCO3)c2ccc3c(c2)OCO3)CC1

Partner	COLO 792	WM1716	WM451Lu	RPMI-7951	MeWo	COLO 800
CCN(CC)CCNC(=O)c1c(C)[nH]c(/C=C2\C(=O)Nc3ccc(F)cc32)c1C at 2 µM	208	65.5	310	163	169	115
C[C@@H]1CCN(C(=O)CC#N)C[C@@H]1N(C)c1ncnc2[nH]ccc12 at 5 µM	38.7	40.4	63.9	76.6	86.7	261
CCCCCCCCc1ccc(CCC(N)(CO)CO)cc1 at 10 µM	7530	18000	8530	2350	3680	1630
NC(=O)Nc1cc(-c2cccc(F)c2)sc1C(=O)N[C@H]1CCCNC1 at 0.1 µM	179	544	227	292	253	149
CCN(CC)CCCCNc1ncc2cc(-c3cc(OC)cc(OC)c3)c(NC(=O)NC(C)(C)C)nc2n1 at 0.5 µM	138	21.2	99.5	60.6	66.9	121
N#Cc1c(O)c2c(-c3ccc(-c4ccccc4O)cc3)csc2[nH]c1=O at 10 µM	79.1	16.5	17.8	57.1	34.4	65.0
Cn1cncc1[C@@](N)(c1ccc(Cl)cc1)c1ccc2c(c1)c(-c1cccc(Cl)c1)cc(=O)n2C at 0.05 µM	84.9	206	162	89.9	68.6	58.6
NC(=O)c1ccc(N(C(N)=O)c2c(F)cccc2F)nc1-c1ccc(F)cc1F at 2 µM	78.7	117	40.1	189	57.3	74.7
Nc1cccc2c1CN(C1CCC(=O)NC1=O)C2=O (stereo unspecified) at 5 µM	70.6	227	94.0	85.8	78.7	122
CO[C@@H]1[C@H](N(C)C(=O)c2ccccc2)C[C@H]2O[C@]1(C)n1c3ccccc3c3c4c(c5c6ccccc6n2c5c31)C(=O)NC4 at 0.4 µM	353	574	214	194	51.1	170
Nc1ccn([C@@H]2O[C@H](CO)[C@@H](O)C2(F)F)c(=O)n1 at 0.002 µM	154	84.8	1210	172	341	161
COc1ccc(C2=N[C@@H](c3ccc(Cl)cc3)[C@@H](c3ccc(Cl)cc3)N2C(=O)N2CCNC(=O)C2)c(OC(C)C)c1 at 0.5 µM	90.3	119	105	85.0	108	183
Cc1cc(N2CCOCC2)cc2[nH]c(-c3c(NC[C@@H](O)c4cccc(Cl)c4)cc[nH]c3=O)nc12 at 1 µM	206	130	97.4	91.5	171	102
O=c1[nH]nc(Sc2ncc([N+](=O)[O-])s2)n1-c1ccc2c(c1)OCCO2 at 1 µM	61.2	144	57.2	112	138	104
O=C(Nc1cc(C(F)(F)F)cc(C(F)(F)F)c1)c1cc(Cl)ccc1O at 0.08 µM	70.0	61.4	58.5	102	163	188
CCCCCCCCCCCCCCCCCCOP(=O)([O-])OC1CC[N+](C)(C)CC1 at 2 µM	80.3	72.3	139	496	33.8	150
Cn1nnc2c(C(N)=O)ncn2c1=O at 10 µM	90.4	652	144	126	24.0	32.0
O=S(=O)(c1ccccc1)N(CC(F)(F)F)c1ccc(C(O)(C(F)(F)F)C(F)(F)F)cc1 at 7 µM	38.9	29.4	47.6	165	82.3	80.0
COc1ccc2c(c1)CCC1C2CCC2(C)C(NCCCCCCN3C(=O)C=CC3=O)CCC12 (stereo unspecified) at 2 µM	88.9	112	43.6	72.1	72.8	57.8

For reference, 2 entries once more:

{"partner": "Cc1cc(N2CCOCC2)cc2[nH]c(-c3c(NC[C@@H](O)c4cccc(Cl)c4)cc[nH]c3=O)nc12 at 1 µM", "COLO 792": 206, "WM1716": 130, "WM451Lu": 97.4, "RPMI-7951": 91.5, "MeWo": 171, "COLO 800": 102}
{"partner": "CCN(CC)CCNC(=O)c1c(C)[nH]c(/C=C2\\C(=O)Nc3ccc(F)cc32)c1C at 2 µM", "COLO 792": 208, "WM1716": 65.5, "WM451Lu": 310, "RPMI-7951": 163, "MeWo": 169, "COLO 800": 115}